Experimental data reported in PubChem BioAssay AID1347423 (Functional Genomics Laboratory (NCATS/FGL), 2020).
About 210 (0.4%) of roughly 52,000 sequences were called active.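 Rule for the calls: active = gene whose silencing raises cell survival under the drug, median off-target-corrected z-score across its silencing RNAs 2 or more; inactive = the rest.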 This is one part of the list.

Assay: Resistance to Poly (ADP-Ribose) Polymerase inhibitor: Gene Identification via Genome-wide siRNA Screen
Conditions: mouse BRCA2 R2336H ES cells, olaparib, CellTiter-Glo viability; hits give high values
Method in brief: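 Genome-wide siRNA screen (3 siRNAs/gene, 20 nM) in mouse ES cells carrying hypomorphic BRCA2 R2336H; olaparib 500 nM added 48 h post-transfection, CellTiter-Glo viability 72 h later. Normalized to plate-median negative control; MAD z-scores, gene median, seed-adjusted.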

Sequence | z-score
GGCUUUCAAGAGCAAUCCCTT against Man2b2 | inactive: 0.33
GGAUAACUCUUUCAAAGACTT against A930010E21Rik | inactive: 0.12
GGCUCGAGUUCAACCUAAUTT against Arih2 | inactive: -0.000943
GGUCCAUUAUCGAUUUCAUTT against 5730403M16Rik | inactive: -0.497
CGGGAAUACGCUACGAACATT against Hoxa13 | inactive: -1.12
GCUGGAUGGCCGUUUCAAATT against 4931417G12Rik | inactive: 1.83
GGAGCAGAUGCUAACUGUGTT against Zfp29 | inactive: 0.532
GGAAUUAUGAACAAAUUGCTT against H2-M9 | inactive: 0.21
GGCUUCCUGACUGUUCAGATT against V1rc8 | inactive: -0.799
GCAUGCGACUCUGUUCUCGTT against Gtf2a2 | inactive: -0.0277
GGUCACAAUGGUUUAAGGATT against Tacr1 | inactive: -0.553
GGUGCUGACUGAGAAGGAGTT against Fdps | inactive: -0.631
GGGCAAGAUGGUCAGUAGATT against Tpt1 | inactive: -1.57
GGCUUCUACUGAAGAAUCCTT against Gdf9 | inactive: -0.173
GCUGCACGGAAACAUGUUUTT against Sirt6 | inactive: 0.773
GGAGAAGGAGUUCCUUAUGTT against Ikbkg | inactive: -0.341
GCUCAAGAGUCUAACUCCCTT against LOC574418 | inactive: 0.00955
CGGAACACUUUAGAAUCUATT against LOC432582 | inactive: 0.927
GGGACCUAAAGUCACAGUCTT against Ppib | inactive: 0.215
GGACAUAAAGAAGGAACUUTT against Myt1 | inactive: -0.364
GGAGAAGAUGUCAUCCAGATT against Zfp467 | inactive: -0.356
GCAGUUAAGGACAAUCAUGTT against 6330505N24Rik | inactive: 2.67
GCCAUUCUAACUCUGCCUCTT against Olfr639 | inactive: -0.692
GCGUCCUGUUCUGUAUCAATT against Tas2r126 | inactive: 0.0467
GGCCUUGUAUAAAACACAUTT against Pah | inactive: 2.09
GGCAGAACUACUUUUAUAGTT against Cldn17 | inactive: 0.727

Sequence | z-score
GGGAUGGUAACAGGAAGUGTT against A530016L24Rik | inactive: 0.00853
GAAGGAAGUUGGAAAGAACTT against Bcl2a1c | inactive: -0.687
GCGAGUUCGGAAGAAGUAUTT against Ddx41 | inactive: -0.638
GCUGGUUACUCCCAAGACGTT against Dlgap2 | inactive: 0.659
GUCCACGAAACUAAAACUGTT against Csh1 | inactive: 0.33
CCACGUCCUCUACUUGUAUTT against Nmbr | inactive: 0.2
GCAACUUACAAGCAGGCCGTT against Fcgr3 | inactive: 0.709
GCCUAGUCCACUUUAUCCUTT against Def8 | inactive: 0.514
GGACAUUAGAGAAUCAUUATT against 4.93E+23 | inactive: 1.62
GGAAAUGGUUAACAUCAUUTT against Mtmr9 | inactive: -0.0027
GGUUUAUCAGAAAGCCUCGTT against Dlgap1 | inactive: 0.892
CGGCAGUCGUGAGACAUAUTT against Camk1d | inactive: -2.97
GGAACCUAUUUUUUCGUAUTT against 5830483C08Rik | inactive: -0.18
GGUCCUUAUCGCUUGGAUGTT against 4932416F07Rik | inactive: -0.374
GGCAAUUUUUACACAGAAATT against Pink1 | inactive: -1.67
UUGGGAAAUCGAUUUUACCTT against LOC433762 | inactive: 1.87
GCUUGGUGUUAAUUUGUUGTT against 4632412E09Rik | inactive: 0.261
GGAUUUCAAAUGGAAACAATT against V1ra2 | inactive: -0.987
GCUAUUAUCAUUGUGCAAUTT against Tas2r125 | inactive: 0.794
GGAGACACUUUCCGGAUUATT against Cbl | inactive: -0.838
CCUUUAGUGAGAUUAAGCATT against 1700064K09Rik | inactive: -0.185
GCCCAUGUUAGAGGUUUUGTT against Rshl2 | inactive: 1.07
GGUUCUACAUGUGAAACAATT against Zfp143 | inactive: -2.03
GGGCUCAGUAGUAAAUAUGTT against Zswim1 | inactive: -0.52
GGCUUAUAGGAGGCUCUCUTT against Prop1 | inactive: -0.27
GGCAUUAUAAGUGACCUUATT against Smarcc1 | inactive: -2.13

Single entries from above.
Entry of GGAAAUGGUUAACAUCAUUTT against Mtmr9 under z-score: inactive: -0.0027
Entry of GCUUGGUGUUAAUUUGUUGTT against 4632412E09Rik under z-score: inactive: 0.261
